# Legend:
# The chains behind the UniProt entries cited, without tags or fusion partners. Where a name states a change or a piece, a line headed by the entry shows the natural chain unless it says otherwise.
# UniProt P01019: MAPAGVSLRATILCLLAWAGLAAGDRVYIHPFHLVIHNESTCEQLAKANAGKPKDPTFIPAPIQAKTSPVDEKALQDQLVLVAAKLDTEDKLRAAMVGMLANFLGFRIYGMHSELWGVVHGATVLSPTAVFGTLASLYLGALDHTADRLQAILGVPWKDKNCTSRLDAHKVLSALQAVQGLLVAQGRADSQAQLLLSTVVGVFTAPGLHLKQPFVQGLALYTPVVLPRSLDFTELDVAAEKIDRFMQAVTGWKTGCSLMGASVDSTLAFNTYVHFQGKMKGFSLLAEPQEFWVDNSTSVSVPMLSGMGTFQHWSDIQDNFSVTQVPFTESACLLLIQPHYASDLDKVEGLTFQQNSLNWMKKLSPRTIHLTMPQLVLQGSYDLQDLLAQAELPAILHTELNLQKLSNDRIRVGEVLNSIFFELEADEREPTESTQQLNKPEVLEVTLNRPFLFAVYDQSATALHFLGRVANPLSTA
# [1] = system: ApoE−/− and ApoE−/−/IDO−/− mice; assay: Serum lipid and glucose level in AngII-infused mice; format: in vivo; details: 4 weeks, mean ± s.e.m.; for Cholesterol / Triglyceride: serum
# [2] = system: ApoE−/− and ApoE−/−/IDO−/− mice; assay: Serum lipid and glucose level in 3-HAA-injected mice; format: in vivo; details: 3-HAA 200 mg/kg/d i.p., 6 weeks, mean ± s.e.m.; for Cholesterol / Triglyceride: serum
Compound,BG ([1]; Apoe−/− mice),BG ([1]; Apoe−/−/IDO−/− mice),Cholesterol ([1]; Apoe−/− mice),Triglyceride ([1]; Apoe−/− mice),Cholesterol ([1]; Apoe−/−/IDO−/− mice),Triglyceride ([1]; Apoe−/−/IDO−/− mice),BG ([2]; Apoe−/− mice),BG ([2]; Apoe−/−/IDO−/− mice),Cholesterol ([2]; Apoe−/− mice),Triglyceride ([2]; Apoe−/− mice),Cholesterol ([2]; Apoe−/−/IDO−/− mice),Triglyceride ([2]; Apoe−/−/IDO−/− mice)
"Angiotensin II (DRVYIHPF; Angiotensin-2; UniProt P01019 25-32, looked up) [AngII, Angiotensin II (Sigma, A9525) infused to induce AAA in mice]",151 ± 27 mg/dll,142 ± 19 mg/dll,496.1 ± 22.0 mg/dL,125 ± 12.6 mg/dL,497.9 ± 24.2 mg/dL,108.3 ± 19^ mg/dl,,,,,,
"Nc1c(O)cccc1C(=O)O [3-HAA, 3-Hydroxyanthranilic acid]",,,,,,,137 ± 24 mg/dL,132 ± 29 mg/dL,471 ± 26.6 mg/dL,131.5 ± 5.5 mg/dL,470.8 ± 30.8 mg/dL,123.4 ± 10.1 mg/dL

# From patent publication US12280047B2, “Treatment of aneurysms” (Georgia State Research Foundation, Inc., priority 2017, dated 2025)
